Measured values: publication doi:10.1101/2022.06.06.495046

Sequences of proteins named here, by UniProt entry; tags and fusion partners are left off.
UniProt P49721: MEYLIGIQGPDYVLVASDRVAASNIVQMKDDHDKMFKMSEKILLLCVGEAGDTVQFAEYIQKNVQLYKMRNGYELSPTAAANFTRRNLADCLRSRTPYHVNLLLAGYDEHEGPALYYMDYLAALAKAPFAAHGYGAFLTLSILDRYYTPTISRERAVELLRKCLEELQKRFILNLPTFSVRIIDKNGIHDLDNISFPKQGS
UniProt P54725: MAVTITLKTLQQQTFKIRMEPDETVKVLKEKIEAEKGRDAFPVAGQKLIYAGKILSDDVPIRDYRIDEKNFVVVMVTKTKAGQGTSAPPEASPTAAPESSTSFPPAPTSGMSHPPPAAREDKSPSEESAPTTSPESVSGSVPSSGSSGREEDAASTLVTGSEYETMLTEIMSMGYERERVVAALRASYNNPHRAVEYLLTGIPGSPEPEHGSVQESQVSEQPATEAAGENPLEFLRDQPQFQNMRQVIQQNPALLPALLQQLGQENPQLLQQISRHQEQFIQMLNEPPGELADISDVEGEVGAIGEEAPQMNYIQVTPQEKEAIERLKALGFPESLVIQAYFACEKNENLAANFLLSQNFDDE
UniProt Q5VYK3: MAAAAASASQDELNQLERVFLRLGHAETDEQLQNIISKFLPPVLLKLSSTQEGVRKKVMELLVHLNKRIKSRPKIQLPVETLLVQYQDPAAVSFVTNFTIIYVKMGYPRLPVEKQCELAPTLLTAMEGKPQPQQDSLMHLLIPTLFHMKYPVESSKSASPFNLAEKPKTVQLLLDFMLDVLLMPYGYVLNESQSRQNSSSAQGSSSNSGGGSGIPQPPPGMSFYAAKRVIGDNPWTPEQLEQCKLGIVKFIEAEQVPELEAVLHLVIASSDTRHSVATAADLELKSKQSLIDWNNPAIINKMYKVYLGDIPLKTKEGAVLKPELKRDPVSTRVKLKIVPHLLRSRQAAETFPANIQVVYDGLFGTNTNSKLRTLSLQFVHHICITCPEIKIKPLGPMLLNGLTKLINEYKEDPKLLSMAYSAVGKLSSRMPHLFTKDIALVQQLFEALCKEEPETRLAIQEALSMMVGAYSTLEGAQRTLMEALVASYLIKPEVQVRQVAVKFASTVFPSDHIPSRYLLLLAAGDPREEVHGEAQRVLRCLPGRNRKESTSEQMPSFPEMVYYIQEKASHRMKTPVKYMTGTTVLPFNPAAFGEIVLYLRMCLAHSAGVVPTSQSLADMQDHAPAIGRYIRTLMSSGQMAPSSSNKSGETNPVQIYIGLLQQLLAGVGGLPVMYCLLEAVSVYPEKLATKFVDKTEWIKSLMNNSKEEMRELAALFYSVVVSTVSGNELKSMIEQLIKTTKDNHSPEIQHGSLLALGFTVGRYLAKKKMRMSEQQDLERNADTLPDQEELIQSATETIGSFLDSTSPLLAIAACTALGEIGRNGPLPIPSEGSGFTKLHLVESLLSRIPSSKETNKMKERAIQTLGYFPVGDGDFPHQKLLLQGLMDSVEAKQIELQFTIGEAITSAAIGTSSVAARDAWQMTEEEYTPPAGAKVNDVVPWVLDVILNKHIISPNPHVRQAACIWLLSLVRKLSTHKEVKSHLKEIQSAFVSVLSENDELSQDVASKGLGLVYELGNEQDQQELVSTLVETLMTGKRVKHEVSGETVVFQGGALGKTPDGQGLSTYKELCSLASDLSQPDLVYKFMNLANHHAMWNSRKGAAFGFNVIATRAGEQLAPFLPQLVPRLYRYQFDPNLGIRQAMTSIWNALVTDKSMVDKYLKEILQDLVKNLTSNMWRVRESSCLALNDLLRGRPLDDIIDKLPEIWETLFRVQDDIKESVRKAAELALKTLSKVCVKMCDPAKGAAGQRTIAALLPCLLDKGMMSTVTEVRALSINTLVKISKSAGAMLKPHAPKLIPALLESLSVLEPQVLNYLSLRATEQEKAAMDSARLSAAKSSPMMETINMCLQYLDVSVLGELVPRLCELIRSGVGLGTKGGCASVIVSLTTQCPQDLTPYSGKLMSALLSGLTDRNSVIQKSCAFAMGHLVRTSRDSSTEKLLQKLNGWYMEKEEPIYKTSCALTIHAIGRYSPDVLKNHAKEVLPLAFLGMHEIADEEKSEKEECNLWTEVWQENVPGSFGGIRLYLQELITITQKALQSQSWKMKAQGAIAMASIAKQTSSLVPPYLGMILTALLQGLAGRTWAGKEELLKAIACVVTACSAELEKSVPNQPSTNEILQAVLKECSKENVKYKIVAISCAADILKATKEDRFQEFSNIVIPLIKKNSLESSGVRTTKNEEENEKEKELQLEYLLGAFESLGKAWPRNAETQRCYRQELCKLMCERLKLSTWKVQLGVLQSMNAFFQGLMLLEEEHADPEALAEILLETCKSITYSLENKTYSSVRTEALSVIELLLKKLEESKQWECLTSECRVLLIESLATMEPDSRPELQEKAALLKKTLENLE
UniProt Q15386: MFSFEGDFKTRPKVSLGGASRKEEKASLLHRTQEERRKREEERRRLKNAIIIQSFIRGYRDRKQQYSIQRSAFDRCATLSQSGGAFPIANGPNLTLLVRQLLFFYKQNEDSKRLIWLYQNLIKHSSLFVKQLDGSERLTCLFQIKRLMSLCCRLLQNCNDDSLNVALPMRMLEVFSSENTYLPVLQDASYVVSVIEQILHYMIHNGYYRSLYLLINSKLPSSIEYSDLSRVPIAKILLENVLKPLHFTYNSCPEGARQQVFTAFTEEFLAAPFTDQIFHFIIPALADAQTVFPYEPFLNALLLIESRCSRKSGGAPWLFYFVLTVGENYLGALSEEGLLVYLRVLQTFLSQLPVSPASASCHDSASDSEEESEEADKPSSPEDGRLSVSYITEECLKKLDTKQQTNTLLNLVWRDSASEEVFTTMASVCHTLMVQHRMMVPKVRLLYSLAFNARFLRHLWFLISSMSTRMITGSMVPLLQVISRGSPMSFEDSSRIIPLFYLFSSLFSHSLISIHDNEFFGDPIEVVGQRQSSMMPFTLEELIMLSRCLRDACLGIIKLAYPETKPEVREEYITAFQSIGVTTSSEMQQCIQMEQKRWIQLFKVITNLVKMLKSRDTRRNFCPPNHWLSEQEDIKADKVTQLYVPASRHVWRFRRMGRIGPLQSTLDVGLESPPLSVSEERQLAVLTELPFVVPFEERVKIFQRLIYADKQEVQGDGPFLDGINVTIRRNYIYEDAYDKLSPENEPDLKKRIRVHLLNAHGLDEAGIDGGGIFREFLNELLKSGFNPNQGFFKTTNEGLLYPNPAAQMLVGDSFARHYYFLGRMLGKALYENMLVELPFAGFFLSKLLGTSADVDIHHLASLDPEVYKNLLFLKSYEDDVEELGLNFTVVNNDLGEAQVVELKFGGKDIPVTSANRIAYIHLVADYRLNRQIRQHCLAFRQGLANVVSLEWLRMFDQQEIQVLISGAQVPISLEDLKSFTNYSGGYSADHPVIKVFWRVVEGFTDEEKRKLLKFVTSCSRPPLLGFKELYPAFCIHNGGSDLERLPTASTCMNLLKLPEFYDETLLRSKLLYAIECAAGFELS
UniProt Q9UHD9: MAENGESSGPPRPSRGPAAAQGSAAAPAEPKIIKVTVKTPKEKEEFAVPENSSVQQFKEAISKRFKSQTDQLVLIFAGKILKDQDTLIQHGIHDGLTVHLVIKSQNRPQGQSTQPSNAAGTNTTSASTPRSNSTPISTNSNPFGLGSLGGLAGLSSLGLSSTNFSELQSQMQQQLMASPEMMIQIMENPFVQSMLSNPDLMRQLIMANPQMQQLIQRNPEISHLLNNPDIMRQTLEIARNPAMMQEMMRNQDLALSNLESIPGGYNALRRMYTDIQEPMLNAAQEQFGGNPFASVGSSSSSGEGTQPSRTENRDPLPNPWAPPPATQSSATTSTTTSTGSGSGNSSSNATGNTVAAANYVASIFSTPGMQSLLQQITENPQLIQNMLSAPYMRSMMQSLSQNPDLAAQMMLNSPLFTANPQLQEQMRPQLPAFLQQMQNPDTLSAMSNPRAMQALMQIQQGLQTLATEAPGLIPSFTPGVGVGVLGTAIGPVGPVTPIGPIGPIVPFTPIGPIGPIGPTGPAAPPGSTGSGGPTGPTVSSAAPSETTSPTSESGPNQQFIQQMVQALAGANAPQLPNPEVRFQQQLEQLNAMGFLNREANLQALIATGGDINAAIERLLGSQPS
UniProt Q05086: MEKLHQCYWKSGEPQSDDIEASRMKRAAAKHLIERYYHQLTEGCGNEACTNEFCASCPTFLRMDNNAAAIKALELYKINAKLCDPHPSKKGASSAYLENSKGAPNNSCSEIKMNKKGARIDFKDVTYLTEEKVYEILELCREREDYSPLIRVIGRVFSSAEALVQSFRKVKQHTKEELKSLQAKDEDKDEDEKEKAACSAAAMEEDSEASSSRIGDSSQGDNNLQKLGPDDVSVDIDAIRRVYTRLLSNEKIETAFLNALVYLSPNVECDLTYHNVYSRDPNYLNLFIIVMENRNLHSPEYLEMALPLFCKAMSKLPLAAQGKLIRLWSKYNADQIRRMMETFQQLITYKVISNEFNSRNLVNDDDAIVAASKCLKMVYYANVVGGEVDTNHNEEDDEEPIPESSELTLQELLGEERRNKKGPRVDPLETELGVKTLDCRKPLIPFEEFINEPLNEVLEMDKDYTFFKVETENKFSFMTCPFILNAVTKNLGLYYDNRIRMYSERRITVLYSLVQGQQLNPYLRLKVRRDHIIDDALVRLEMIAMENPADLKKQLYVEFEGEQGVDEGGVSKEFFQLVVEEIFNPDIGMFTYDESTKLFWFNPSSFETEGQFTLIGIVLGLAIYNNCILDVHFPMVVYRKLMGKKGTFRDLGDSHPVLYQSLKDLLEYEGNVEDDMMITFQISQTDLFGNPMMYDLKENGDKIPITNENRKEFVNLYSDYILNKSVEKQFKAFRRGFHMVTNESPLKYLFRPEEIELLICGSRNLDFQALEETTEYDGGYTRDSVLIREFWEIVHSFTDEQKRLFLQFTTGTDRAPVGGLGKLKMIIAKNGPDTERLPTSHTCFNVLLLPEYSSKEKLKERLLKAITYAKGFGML

target: PSMB2-HB (20S subunit PSMB2 tagged with TEV protease-cleavable hexahistidine-biotin) (human) (UniProt P49721); experiment: affinity purification with mass spectrometry

binding	Substance
binds	RAD23A (from UniProt P54725 1-363)
binds	VCP/p97 (from UniProt P55072 1-806)
binds	Ecm29 proteasome adaptor and scaffold (ECPAS) (from UniProt Q5VYK3 1-1845)
binds	UBE3C (from UniProt Q15386 1-1083) (enzyme)
binds	UBQLN2 (from UniProt Q9UHD9 1-624)
binds	UBE3A (from UniProt Q05086 1-875) (enzyme)

Results are given in words; binding and its absence hold for the method and conditions named. In cells and extracts the contact can be indirect. A yes stands for co-enrichment or nearness to the bait. Other partners may have been found.
